Source: publication PMC3972672
No constants are given. Whether binding was seen depends on the method and setting. Binding seen in cells or lysates may run through a third protein. Some results given as binding are weak or reduced against the parent protein; the word gives no strength. Values belong to the binder of their own block, whether it stands above or below them.

Target: T1, CD95 (Fas/APO-1) (human (endogenous in SKW6.4)), P25445
T1 chain: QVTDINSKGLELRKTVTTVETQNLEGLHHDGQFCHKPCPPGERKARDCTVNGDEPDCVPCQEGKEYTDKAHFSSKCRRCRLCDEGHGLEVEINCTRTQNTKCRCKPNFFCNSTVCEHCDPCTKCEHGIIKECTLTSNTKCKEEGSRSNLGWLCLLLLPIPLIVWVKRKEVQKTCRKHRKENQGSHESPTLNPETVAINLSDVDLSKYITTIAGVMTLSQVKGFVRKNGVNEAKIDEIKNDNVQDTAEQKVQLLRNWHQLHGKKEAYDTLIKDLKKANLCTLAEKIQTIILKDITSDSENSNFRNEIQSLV
Assay: co-IP; anti-CD95 antibody (10 ug) and Protein-A-Sepharose beads; 5 x 10^7 SKW6.4 cells stimulated with 1 ug/mL LZ-CD95L for 15 min, lysed under mild conditions; Western blot
Conditions: remark: other sources report otherwise

binding: binds
B1: FADD, Q13158 1-208 (natural protein)
chain: MDPFLVLLHSVSSSLSSSELTELKFLCLGRVGKRKLERVQSGLDLFSMLLEQNDLEPGHTELLRELLASLRRHDLLRRVDDFEAGAAAGAAPGEEDLCAAFNVICDNVGKDWRRLARQLKVSDTKIDSIEDRYPRNLTERVRESLRIWKNTEKENATVAHLVGALRSCQMNLVADLVQEVQQARDLQNRSGAMSPMSWNSDASTSEAS

binding: binds
B2: procaspase-8, Q14790 1-479 (enzyme)
chain: MDFSRNLYDIGEQLDSEDLASLKFLSLDYIPQRKQEPIKDALMLFQRLQEKRMLEESNLSFLKELLFRINRLDLLITYLNTRKEEMERELQTPGRAQISAYRVMLYQISEEVSRSELRSFKFLLQEEISKCKLDDDMNLLDIFIEMEKRVILGEGKLDILKRVCAQINKSLLKIINDYEEFSKERSSSLEGSPDEFSNGEELCGVMTISDSPREQDSESQTLDKVYQMKSKPRGYCLIINNHNFAKAREKVPKLHSIRDRNGTHLDAGALTTTFEELHFEIKPHDDCTVEQIYEILKIYQLMDHSNMDCFICCILSHGDKGIIYGTDGQEAPIYELTSQFTGLKCPSLAGKPKVFFIQACQGDNYQKGIPVETDSEEQPYLEMDLSSPQTRYIPDEADFLLGMATVNNCVSYRNPAEGTWYIQSLCQSLRERCPRGDDILTILTEVNYEVSNKDDKKNMGKQMPQPTFTLRKKLVFPSD
